No constants are given. Whether binding was seen depends on the method and setting. Where a sequence is shown, tags or fusion partners need not be part of it.

The source of these data is paper PMC5484351.

In experiment [1] the target is Saccharomyces cerevisiae Atf1p (recombinant Atf1p-V5-His10) (S. cerevisiae) (UniProt P40353). Put plainly: SEC; Superdex 200 10/300 GL, Thesit kept in the SEC buffer (detergents at 2–4 x CMC), column calibrated with protein standards; both purified.
Experiment [2] has the same target. The experiment is described as follows: SEC; Superdex 200 10/300 GL, without detergent or with DDM in the buffer; both purified.

B1: Saccharomyces cerevisiae Atf1p (recombinant Atf1p-V5-His10) (enzyme, UniProt P40353 1-525)
chain: MNEIDEKNQAPVQQECLKEMIQNGHARRMGSVEDLYVALNRQNLYRNFCTYGELSDYCTRDQLTLALREICLKNPTLLHIVLPTRWPNHENYYRSSEYYSRPHPVHDYISVLQELKLSGVVLNEQPEYSAVMKQILEEFKNSKGSYTAKIFKLTTTLTIPYFGPTGPSWRLICLPEEHTEKWKKFIFVSNHCMSDGRSSIHFFHDLRDELNNIKTPPKKLDYIFKYEEDYQLLRKLPEPIEKVIDFRPPYLFIPKSLLSGFIYNHLRFSSKGVCMRMDDVEKTDDVVTEIINISPTEFQAIKANIKSNIQGKCTITPFLHVCWFVSLHKWGKFFKPLNFEWLTDIFIPADCRSQLPDDDEMRQMYRYGANVGFIDFTPWISEFDMNDNKENFWPLIEHYHEVISEALRNKKHLHGLGFNIQGFVQKYVNIDKVMCDRAIGKRRGGTLLSNVGLFNQLEEPDAKYSICDLAFGQFQGSWHQAFSLGVCSTNVKGMNIVVASTKNVVGSQESLEELCSIYKALLLGP
Consider B1, for which the binding result in experiment [1] and in experiment [2] was “no binding” each time.
